# Measurements reported in PubChem BioAssay AID2549 (National Center for Advancing Translational Sciences (NCATS), 2010).
# The chains behind the UniProt entries cited, without tags or fusion partners. Where a name states a change or a piece, a line headed by the entry shows the natural chain unless it says otherwise.
# UniProt P46063: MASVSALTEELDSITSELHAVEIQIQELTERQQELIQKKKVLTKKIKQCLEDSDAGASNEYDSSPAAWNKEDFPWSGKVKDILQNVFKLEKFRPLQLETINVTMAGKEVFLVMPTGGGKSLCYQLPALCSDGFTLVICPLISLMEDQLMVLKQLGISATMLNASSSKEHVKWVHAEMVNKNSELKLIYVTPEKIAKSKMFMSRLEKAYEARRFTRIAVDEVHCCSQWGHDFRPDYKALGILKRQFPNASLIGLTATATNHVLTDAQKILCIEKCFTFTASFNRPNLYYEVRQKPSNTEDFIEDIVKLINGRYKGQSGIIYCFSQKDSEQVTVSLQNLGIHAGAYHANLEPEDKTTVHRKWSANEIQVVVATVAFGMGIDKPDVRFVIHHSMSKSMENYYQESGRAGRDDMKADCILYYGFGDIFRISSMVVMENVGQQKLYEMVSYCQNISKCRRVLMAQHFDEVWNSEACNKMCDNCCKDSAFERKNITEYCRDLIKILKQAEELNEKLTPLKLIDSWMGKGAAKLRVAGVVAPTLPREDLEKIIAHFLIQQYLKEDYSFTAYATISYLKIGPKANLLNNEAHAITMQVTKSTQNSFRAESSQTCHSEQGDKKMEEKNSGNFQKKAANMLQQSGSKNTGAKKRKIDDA
# About 1,300 (0.54%) of roughly 240,000 compounds were called active. Inconclusive means that the source gave no clear call. Such entries were picked first, then a sample of the others. Calls come from the whole dose curve; as a rule, active = well fitted inhibition curve with a large enough effect; inconclusive = small, poorly fitted or top-dose-only effect; inactive = flat fitted curve, though single readings scatter. Potencies of inconclusive entries are doubtful fits and often do not repeat.
# Biological target: ATP-dependent DNA helicase Q1 (Homo sapiens) (UniProt P46063)
# Experiment: qHTS Assay for Inhibitors of RecQ-Like Dna Helicase 1 (RECQ1); note: nearly all actives have a fitted effect of over 30% in size;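 for activity, negative = inhibition: plate controls were vehicle for no effect and no enzyme for full effect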
# Details: RECQ1 DNA unwinding, red fluorescence kinetic read; activity, negative = inhibition: at 57.3 µM (top of the series); series mostly up to 57.3 µM
# Procedure, shortened: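 50 nM RECQ1T1 preincubated 15 min with compound in Tris pH 8.0 buffer with MgCl2, DTT, Tween-20 and 2.5 ug/ml poly(dI-dC); started with 200 nM TAMRA/BHQ-2 forked duplex and 2 mM ATP. Unwinding read as fluorescence (525/598 nm), two reads 2 h apart.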
# Potency is the fitted concentration of half-maximal effect.
Compound,Potency,outcome,"activity, negative = inhibition"
O=C(O)c1ccc(-c2ccco2)n1Cc1ccccc1,"inconclusive: 39.8 µM [inhibitor, single point]",–,–
CC(=O)OCC(NC(=O)C1CCCN1C(=O)OC(C)(C)C)C1OC(n2cc(F)c(=O)[nH]c2=O)C(OC(C)=O)C1OC(C)=O (stereo not given),–,inactive,–
CCn1cc([N+](=O)[O-])c(C(=O)N2N=C(c3ccc(Cl)c(Cl)c3)CC2c2ccccc2O)n1 (stereo not given),–,–,inactive: -3.71%
CN(C(=O)COc1cccc(Br)c1)C1CCS(=O)(=O)C1 (stereo not given),"inconclusive: 3.98 µM [inhibitor, single point]",–,–
O=C(Nc1ncccc1O)c1c(O)c2ccccc2[nH]c1=O,–,inactive,–
COc1ccc(-n2c(Cc3cccn3C)nnc2SCC(=O)NCc2ccco2)cc1,"inconclusive: 35.5 µM [inhibitor, single point]",–,–
CC(C)=C(C#N)c1nc2ccccc2s1,active: 10 µM,–,–
CC1CCC2C(=O)N3C(CCC(C)C3c3ccc(-c4ccco4)cc3)C(=O)N2C1c1ccc(-c2ccco2)cc1 (stereo not given),active: 2.51 µM,–,–
CN1CCOc2cc(S(=O)(=O)Nc3ccc(F)cc3)ccc21,"inconclusive: 4.47 µM [inhibitor, partial curve]",–,–
O=C1C=C(O)c2c(O)cccc2C1=O,"inconclusive: 28.2 µM [inhibitor, single point]",–,–
Cc1ccccc1/C=N/Nc1ccnc2cc(Cl)ccc12,"inconclusive: 39.8 µM [inhibitor, single point]",–,–
COc1ccc(S(=O)(=O)NC(CC(=O)NCc2ccc3c(c2)OCO3)c2ccco2)cc1 (stereo not given),"inconclusive: 0.0009 µM [inhibitor, full curve, poor fit]",–,–
COc1ccc(CC(=O)n2[nH]c(=O)c3ccccc3c2=O)cc1OC,–,inactive,–
CC1CCCCC1NC(=O)c1ccc(CSc2nc3ccncc3[nH]2)cc1 (stereo not given),"inconclusive: 28.2 µM [inhibitor, partial curve]",–,–
COc1ccc(-n2c(=O)c(-c3cccc(Cl)c3)nc3cncnc32)cc1,"inconclusive: 17.8 µM [inhibitor, single point]",–,–
COc1ccc(-c2cnnn2-c2ccc(NC(=O)/C=C/c3ccc(OC)c(OC)c3)cc2)cc1,"inconclusive: 25.1 µM [inhibitor, single point]",–,–
Cc1ccc(NC2c3ncccc3C(=O)N2c2ccccc2C)cc1C (stereo not given),–,–,inactive: 1.09%
CCSc1nnc(-c2sc3nnc(-c4ccccc4)c(-c4ccccc4)c3c2N)o1,"inconclusive: 6.31 µM [inhibitor, single point]",–,–
Cc1cc2c(nc1C)CCCN2CC(O)CN1CCCc2nc(C)c(C)cc21,–,inactive [at 11.5 µM],–
COc1cccc(NC(=S)N(Cc2ccc(C)cc2)Cc2ccccn2)c1,"inconclusive: 4.47 µM [inhibitor, partial curve]",–,–

# Part of the list above in order of heavy-atom count, ascending:
Compound,Potency,outcome,"activity, negative = inhibition"
O=C1C=C(O)c2c(O)cccc2C1=O,"inconclusive: 28.2 µM [inhibitor, single point]",–,–
COc1ccc(-n2c(=O)c(-c3cccc(Cl)c3)nc3cncnc32)cc1,"inconclusive: 17.8 µM [inhibitor, single point]",–,–
CC1CCCCC1NC(=O)c1ccc(CSc2nc3ccncc3[nH]2)cc1 (stereo not given),"inconclusive: 28.2 µM [inhibitor, partial curve]",–,–
